# Assay results

Data taken from PubChem BioAssay AID912, deposited by NCATS (2007).

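A cell-based FRET test of anthrax lethal toxin entry, tracked through the 460 nm emission signal; the cell line is not named here. Each compound was tested as a concentration series from about 0.0005 to 40 µM. The number is the fitted AC50 of the 460 nm signal alone; lower values mean a more potent effect. A falling signal goes with compounds filed as inhibitors or cytotoxic, a rising one with activators or fluorescent compounds (inferred from the filed classes).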

Values are in nM. Common to all entries: measured here: 460 nm channel. Part of the compounds only, not a random draw; the main read-out is not listed here. A potency from a partial, single-point or poor curve is only a rough figure. The first word of each remark tells which way the curve ran; it can be opposite to the aim of the assay.

compound,AC50 (nM),curve
Cn1c(C(=O)NCCCN2CCCCCC2)cc2c(=O)n(C)c3ccccc3c21,3981,"falling, full curve"
OCCN1CCN(C(c2cccs2)c2ccc3cccnc3c2O)CC1 (stereo unspecified),12589,"falling, partial curve"
CC1Cc2ccccc2N1C(=O)C12CCC(C)(C(=O)C1)C2(C)C (stereo unspecified),2512,"rising, partial curve"
COc1ccc(-c2nnc(SCC(=O)Nc3sc4c(c3C#N)CCC4)n2CC2CCCO2)cc1 (stereo unspecified),10000,"rising, partial curve, poor fit"
O=C(c1cc(C(F)(F)F)cc(C(F)(F)F)c1)N1CCC[C@@]2(CCN(Cc3ccccc3)C2)C1,251.2,"rising, single point"
CC(=O)N=c1ncn(CC(COC(C)=O)OC(C)=O)c2nc[nH]c12 (stereo unspecified),3.162,"falling, full curve, poor fit"
C=CCc1cc(C(=O)N2CCCCC2)ccc1O,3162,"rising, full curve"
CCOC(=O)c1sc2nccc(N(C)C)c2c1N=CN(C)C,12589,"rising, partial curve"
CC1CCC2C(=O)OC(CN=[N+]=[N-])CN2C1c1ccc(Br)cc1 (stereo unspecified),3981,"falling, single point"
Nc1nonc1C(=O)NCCNCc1cc(Br)ccc1OCc1ccc(F)cc1,316.2,"falling, partial curve"
Fc1ccc(Nc2ncncc2-c2ccoc2)cc1,12589,"falling, partial curve"
Cc1ccc(CC2CC(=O)N(CCc3ccc4c(c3)OCO4)C2=O)cc1 (stereo unspecified),31622,"falling, single point"
COc1ccc(OC)c(S(=O)(=O)NCCC2=CCCCC2)c1,5012,"falling, single point"
Cc1ccn2cc(-c3nonc3C)cc2c1,2512,"rising, full curve, poor fit"
CCCc1nc(-c2ccc(-c3ccc(F)cc3)cc2)no1,7943,"falling, partial curve"
Cc1cc(OCCOCCN2CCCC2)ccc1C(C)C,31622,"falling, single point"
CCc1c(C)c(C#N)c2nc3ccccc3n2c1N(C)C,3162,"falling, single point"
COc1cc(CNc2cccc(F)c2)cc(Br)c1O,31622,"falling, single point"
CCn1c2ccccc2c2cc(NC(=O)c3ccco3)ccc21,5012,"falling, partial curve"
CCOC(=O)C1=C(C)N=c2s/c(=C3\C(=O)Nc4ccccc43)c(=O)n2C1c1ccc2c(c1)OCO2 (stereo unspecified),5012,"rising, single point"
COc1cccc(NC(=O)CC2(CC(=O)O)CCCC2)c1,5012,"falling, partial curve"
NC(=O)c1cnn2c1NC(c1ccc(F)cc1)CC2C(F)(F)F (stereo unspecified),3162,"falling, single point"
Cc1ccc2nc(-c3ccc(NC(=O)c4ccc(N)cc4)c(S(=O)(=O)O)c3)sc2c1,3981,"falling, partial curve"
CCN(CC)c1ccc(NC(=O)c2ccc(Br)o2)cc1,10000,"falling, partial curve"
CCCCCCCCCCCCCC(=O)O[C@H]1[C@@H](C)[C@@]2(O)[C@@H](C=C(CO)C[C@]3(O)C(=O)C(C)=C[C@@H]23)C2C(C)(C)[C@]21OC(C)=O (stereo partly specified),6.31,"falling, full curve"
CC[C@@H]1OC(=O)[C@@H](C)[C@H](O[C@@H]2C[C@@](C)(OC)[C@@H](O)[C@H](C)O2)[C@H](C)[C@H](O[C@@H]2O[C@@H](C)C[C@@H](N(C)C)[C@H]2O)[C@@](C)(O)C[C@H](C)C(=O)[C@@H](C)[C@H](O)[C@@]1(C)O,12589,"falling, single point"
C[C@H]1[C@H](O)[C@@H](C)C=CC=CC=CC=CC=CC=CC=C[C@H](O[C@@H]2O[C@@H](C)[C@H](O)[C@@H](N)[C@@H]2O)C[C@@H]2O[C@](O)(C[C@@H](O)C[C@@H](O)[C@@H](O)CC[C@@H](O)C[C@@H](O)CC(=O)O[C@H]1C)C[C@H](O)[C@H]2C(=O)O,1995,"rising, partial curve"
CCCn1c(=NC(=O)c2ccco2)c(C(=O)OCC)cc2c(=O)n3ccccc3nc21,10000,"rising, partial curve"
CCOC(=O)C1CCN(C(=O)c2cn(CCOC)c(=O)c3c2c2ccccc2n3C)CC1,5012,"rising, single point"
CN(C)c1ccc(/C=C2/C(=O)Nc3ccccc32)cc1,12589,"falling, partial curve"
O=C(Nc1nc(-c2cccs2)c(-c2ccccc2)s1)c1ccco1,12589,"falling, single point"
O=C(Nc1ccon1)c1cccc(S(=O)(=O)N2CCCC2)c1,3.981,"falling, full curve"
CNC1=C(Br)C(=O)c2ccncc2C1=O,6310,"falling, full curve"
O=C(c1cnccn1)N1CCC2(CC1)CCN(C(c1ccccc1)c1ccccc1)CC2,631,"rising, full curve, poor fit"
Oc1ccccc1-c1cc(C(F)(F)F)[nH]n1,10000,"falling, partial curve"
COc1cccc(C2CC(C(F)(F)F)n3nc(C(=O)NCc4cccnc4)cc3N2)c1 (stereo unspecified),3.981,"rising, full curve, poor fit"
CCOc1cccc(NC(=O)c2ccc(S(=O)(=O)N(C)C)cc2)c1,12589,"falling, single point"
CC(C)C(=O)Nc1c(C(=O)c2ccc(F)cc2)oc2ccccc12,25118,"rising, single point"
c1ccc2c3c(cc(N4CCOCC4)c2c1)OC1(N2CCOCC2)CCCCC1O3 (stereo unspecified),7943,"rising, partial curve"
COC(=O)c1ccc(Nc2nc(C)cc(=O)[nH]2)cc1,1259,"falling, full curve"
COC(=O)[C@@]1(Cc2ccc(OC)cc2)[C@H]2c3cc(C(=O)N(C)C)n(CCc4ccccn4)c3C[C@H]2CN1C(=O)c1ccccc1,15848,"rising, single point"
O=C1CC(c2ccc(F)cc2)CC(O)=C1C=NCCN1CCN(C(=O)Nc2ccccc2)CC1 (stereo unspecified),5012,"rising, partial curve, poor fit"
COc1ccccc1C(=O)Nc1ccc(C(=O)O)cc1,12589,"rising, partial curve"
COc1cccc2c1[C@@H]1CN(CCCCn3c(=O)[nH]c4c(sc5ncc(-c6ccccc6)nc54)c3=O)C[C@H]1CO2,25118,"falling, partial curve"
COc1ccccc1N1CCN(S(=O)(=O)Cc2ccccc2Cl)CC1,3162,"rising, full curve"
COc1ccc2[nH]cc(CCNc3nc(-c4ccoc4)nc4ccccc34)c2c1,10000,"falling, partial curve"
CC(C)NC(=O)N1CCC2(CC1)CCN(C(=O)c1cc(C(F)(F)F)cc(C(F)(F)F)c1)CC2,12589,"rising, single point"
CC(=O)Nc1nonc1-c1nc2ccccc2n1CC1CC1,3.981,"falling, full curve, poor fit"
O=S(=O)(c1cc(Cl)ccc1Cl)N1CCN(Cc2ccc3c(c2)OCO3)CC1,15848,"falling, partial curve"
Cc1ccc(S(=O)(=O)CCC(=O)c2ccc(O)cc2O)cc1,31622,"falling, single point"
CCOC(=O)c1ccc(NC(=O)c2cc3ccccc3o2)cc1,31622,"falling, single point"

For reference, 6 entries once more:

| compound | AC50 (nM) | curve |
|---|---|---|
| `COC(=O)c1ccc(Nc2nc(C)cc(=O)[nH]2)cc1` | 1259 | falling, full curve |
| `COc1cccc2c1[C@@H]1CN(CCCCn3c(=O)[nH]c4c(sc5ncc(-c6ccccc6)nc54)c3=O)C[C@H]1CO2` | 25118 | falling, partial curve |
| `Cc1ccn2cc(-c3nonc3C)cc2c1` | 2512 | rising, full curve, poor fit |
| `COC(=O)[C@@]1(Cc2ccc(OC)cc2)[C@H]2c3cc(C(=O)N(C)C)n(CCc4ccccn4)c3C[C@H]2CN1C(=O)c1ccccc1` | 15848 | rising, single point |
| `O=C(c1cnccn1)N1CCC2(CC1)CCN(C(c1ccccc1)c1ccccc1)CC2` | 631 | rising, full curve, poor fit |
| `Cc1ccc(CC2CC(=O)N(CCc3ccc4c(c3)OCO4)C2=O)cc1` (stereo unspecified) | 31622 | falling, single point |